Results deposited as PubChem BioAssay AID652243 (Drosophila RNAi Screening Center, 2013).

Purpose: 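Knock-downs that decrease or increase androgen receptor reporter signal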 (primary screen)
System: Drosophila S2R+ cells
Reagents: long dsRNA against Drosophila genes
Timing: 72 h (48 h, then 24 h hormone)
Treatment: synthetic androgen R1881 at 10 nM for 24 h
Detection: 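Firefly light from an androgen-responsive reporter and Renilla control light per well, raw and unnormalised, for each of two replicates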
Scale: firefly reporter light: higher = more light from androgen-responsive reporter; Renilla control light: higher = more constitutive control signal (cell number, transfection)
Active means: 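Hit when the log firefly-to-Renilla ratio dropped or increased by a fixed fold versus the mean of GFP or LacZ controls across duplicate plates; lowering cut given as 1.5 and as 3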
Calls: active = hit: reporter lowered or raised; inactive = no hit
The deposit covers about 24,000 reagents; this is a random part of those that have a named target and a result. Over the whole deposit, 246 (1%) are marked active. 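Plates not normalised; calls are printed but the firefly/Renilla ratio behind them is not deposited; fold cut for lowering reported inconsistently.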 Raw values vary from plate to plate and are shown uncorrected. The numbers tell different reagents against one gene apart. A plus sign joins genes that one reagent is predicted to hit. Not given: the amount of reagent.

target gene | dsRNA no. | firefly reporter light, replicate 1 | firefly reporter light, replicate 2 | Renilla control light, replicate 1 | Renilla control light, replicate 2 | call
nau (nautilus) | 1 | 1.67e5 | 1.04e5 | 1.68e6 | 1.68e6 | inactive
lncRNA:CR31044 (long non-coding RNA::CR31044) | 1 | 4.77e5 | 5.83e5 | 1.32e6 | 1.87e6 | inactive
lncRNA:CR31044 (long non-coding RNA::CR31044) | 2 | 3.57e5 | 2.74e5 | 6.90e5 | 5.51e5 | inactive
CG14913 | 1 | 1.52e5 | 2.02e5 | 1.39e6 | 1.60e6 | inactive
CG14913 | 2 | 8.75e5 | 6.50e5 | 1.87e6 | 1.36e6 | inactive
CG14227 | 1 | 5.95e5 | 6.45e5 | 3.57e6 | 4.54e6 | inactive
CG14227 | 2 | 7.70e5 | 6.87e5 | 1.13e6 | 1.05e6 | inactive
GstE13 (Glutathione S transferase E13) | 1 | 1.09e6 | 8.06e5 | 1.38e6 | 8.88e5 | inactive
CG42789 | 1 | 5.22e5 | 5.47e5 | 3.22e6 | 3.89e6 | inactive
CG3568 | 1 | 2.61e5 | 2.91e5 | 3.13e6 | 3.24e6 | inactive
CG3568 | 2 | 2.22e5 | 2.20e5 | 5.58e5 | 6.96e5 | inactive
CG3119 | 1 | 6.54e5 | 6.57e5 | 1.06e6 | 9.93e5 | inactive
LIMK1 (LIM domain kinase 1) | 1 | 1.11e5 | 93769 | 7.01e5 | 7.61e5 | inactive
LIMK1 (LIM domain kinase 1) | 2 | – | – | – | – | inactive
LIMK1 (LIM domain kinase 1) | 3 | – | – | – | – | inactive
CG1648 | 1 | 3.66e5 | 4.78e5 | 1.55e6 | 2.08e6 | inactive
CG1648 | 2 | 5.52e5 | 5.14e5 | 1.00e6 | 1.12e6 | inactive

Continued, starting with the last 5 of the part before.
target gene | dsRNA no. | firefly reporter light, replicate 1 | firefly reporter light, replicate 2 | Renilla control light, replicate 1 | Renilla control light, replicate 2 | call
LIMK1 (LIM domain kinase 1) | 1 | 1.11e5 | 93769 | 7.01e5 | 7.61e5 | inactive
LIMK1 (LIM domain kinase 1) | 2 | – | – | – | – | inactive
LIMK1 (LIM domain kinase 1) | 3 | – | – | – | – | inactive
CG1648 | 1 | 3.66e5 | 4.78e5 | 1.55e6 | 2.08e6 | inactive
CG1648 | 2 | 5.52e5 | 5.14e5 | 1.00e6 | 1.12e6 | inactive
Mondo | 1 | 1.99e5 | 1.84e5 | 2.17e6 | 1.85e6 | inactive
Mondo | 2 | 1.78e5 | 1.40e5 | 8.24e5 | 6.61e5 | active
Mondo | 3 | 3.30e5 | 3.07e5 | 4.49e5 | 4.04e5 | inactive
COX6AL (Cytochrome c oxidase subunit 6A-like) | 1 | 3.85e5 | 6.75e5 | 8.24e5 | 1.32e6 | inactive
Arts + Apl | 1 | 2.79e5 | 2.07e5 | 3.01e6 | 2.67e6 | inactive
slmb (supernumerary limbs) | 1 | 1.20e5 | 1.36e5 | 7.57e5 | 7.28e5 | inactive
CG6788 + CR32496 | 1 | 9.34e5 | 7.51e5 | 2.69e6 | 1.77e6 | inactive
CG31550 | 1 | 1.10e5 | 1.15e5 | 2.56e6 | 1.88e6 | inactive
CG31550 | 2 | 50317 | 42025 | 4.33e5 | 3.72e5 | inactive
CG31550 | 3 | 8.66e5 | 7.70e5 | 9.44e5 | 9.44e5 | inactive
Drep1 (DNA fragmentation factor-related protein 1) | 1 | 3.64e5 | 2.29e5 | 1.64e6 | 1.25e6 | inactive
CG32813 | 1 | 2.68e5 | 3.27e5 | 4.35e6 | 4.57e6 | inactive
CG32813 | 2 | 5.92e5 | 5.58e5 | 9.60e5 | 1.06e6 | inactive
CG1271 | 1 | 1.59e6 | 1.01e6 | 2.32e6 | 1.96e6 | inactive
CG1271 | 2 | – | – | – | – | inactive
CG1271 | 3 | – | – | – | – | inactive
Spn28Dc (Serpin 28Dc) | 1 | 90654 | 90420 | 1.16e6 | 8.79e5 | inactive
CG10104 | 1 | 52986 | 1.11e5 | 1.29e6 | 1.29e6 | inactive
Cka (Connector of kinase to AP-1) | 1 | 3.15e5 | 3.28e5 | 2.77e6 | 2.84e6 | inactive
Cka (Connector of kinase to AP-1) | 2 | 3.93e5 | 6.94e5 | 4.87e5 | 7.14e5 | inactive
CG33978 | 1 | 9.88e5 | 8.97e5 | 1.64e6 | 1.88e6 | inactive
CG12362 | 1 | 2.81e5 | 1.13e5 | 3.12e6 | 1.70e6 | inactive
CG12728 | 1 | 1.02e5 | 1.10e5 | 7.81e5 | 6.34e5 | inactive
